Measurements: paper PMC4072698
Construct, isoform or probe ends are uncertain for at least one entry.

What was measured:
Assay in all cases: EMSA
Survivin = Survivin (UniProt Q4R1J6); settings: text: Survivin does not bind RNA on its own; EMSA: 20 mM Hepes pH 7.8, 100 mM NaCl, 2 mM MgCl2, 4% glycerol, 1 mM beta-mercaptoethanol, 0.1 mg/ml yeast tRNA, 1 nM Cy5 transcript, room temperature, 30 min; recombinant protein; label: Cy5-CTP (1:20) internal; probe letters rebuilt from the primers and the genome; part of a longer molecule
[1] = system: CPC (AurB/Incenp/Survivin/DasraA); settings: EMSA: 20 mM Hepes pH 7.8, 100 mM NaCl, 2 mM MgCl2, 4% glycerol, 1 mM beta-mercaptoethanol, 0.1 mg/ml yeast tRNA, 1 nM Cy5 transcript, room temperature, 30 min; recombinant protein; label: Cy5-CTP (1:20) internal; probe letters rebuilt from the primers and the genome; part of a longer molecule
Survivin/DasraA = settings: EMSA: 20 mM Hepes pH 7.8, 100 mM NaCl, 2 mM MgCl2, 4% glycerol, 1 mM beta-mercaptoethanol, 0.1 mg/ml yeast tRNA, 1 nM Cy5 transcript, room temperature, 30 min; recombinant protein; label: Cy5-CTP (1:20) internal; probe letters rebuilt from the primers and the genome; part of a longer molecule
AurB/Incenp = settings: EMSA: 20 mM Hepes pH 7.8, 100 mM NaCl, 2 mM MgCl2, 4% glycerol, 1 mM beta-mercaptoethanol, 0.1 mg/ml yeast tRNA, 1 nM Cy5 transcript, room temperature, 30 min; recombinant protein; label: Cy5-CTP (1:20) internal; probe letters rebuilt from the primers and the genome; part of a longer molecule
GFP-3xHA-AurB = GFP-3xHA-AurB (UniProt Q6DE08); settings: EMSA: 20 mM Hepes pH 7.8, 100 mM NaCl, 2 mM MgCl2, 4% glycerol, 1 mM beta-mercaptoethanol, 0.1 mg/ml yeast tRNA, 1 nM Cy5 transcript, room temperature, 30 min; recombinant protein; residues 1-361; label: Cy5-CTP (1:20) internal; probe letters rebuilt from the primers and the genome; part of a longer molecule

| Sequence | Kd (Survivin) [nM] | Kd [1] [nM] | Kd (Survivin/DasraA) [nM] | Kd (AurB/Incenp) [nM] | Kd (GFP-3xHA-AurB) [nM] |
| --- | --- | --- | --- | --- | --- |
| CAAAUUGAUAAAGAGACAGAUGCAGAAAAAGCAUUUAAGGAAGGGAAAGAAAAAAGUGAAAAACGAUCUGCGCUAAAGGAGAGGGACUUAGAAAAGAAAAGCACUGAUAAAGAGAAGAAGGCAAAAUCAGAUCACAAAUCUGAAAGAGAAAAAGUAGAAAUGCCAGAAAAUACAGACAAAUCUAAAUCACACCUGCAAUCCCCAGAUAAGCUUCAAAAGGAAAGCGAUAAAAUUAGGACUUCAGCUGUCGGCAAAAAAAACGAUGACAAAUCCAAAGACAGAAAAGACCGGAAUGAAAAGGACAAGCAUCUUGGAGAGCA [Xl. 19006 WT RNA] | 1110 | 53 | 73 | 70 | 160 |
| CAAAUUGAUAAAGAGACAGAUGCAGAAAAAGCAUUUAAGGAAGGGAAAGAAAAAAGUGAAAAACGAUCUGCGCUAAAGGAGAGGGACUUAGAAAAGAAAAGCACUGAUAAAGAGAAGAAAUGGGGCUGAGCUGUGGGCUCAGGGAGAGGGGGACGAGGGUGCCAGAAAAUACAGACAAAUCUAAAUCACACCUGCAAUCCCCAGAUAAGCUUCAAAAGGAAAGCGAUAAAAUUAGGACUUCAGCUGUCGGCAAAAAAAACGAUGACAAAUCCAAAGACAGAAAAGACCGGAAUGAAAAGGACAAGCAUCUUGGAGAGCA [Xl. 19006 mutant RNA] |  | 38 | 67 | 59 | 118 |
